Consider 3 molecules from article PMC13463607.

The chains behind the UniProt entries cited, without tags or fusion partners.
UniProt Q14247: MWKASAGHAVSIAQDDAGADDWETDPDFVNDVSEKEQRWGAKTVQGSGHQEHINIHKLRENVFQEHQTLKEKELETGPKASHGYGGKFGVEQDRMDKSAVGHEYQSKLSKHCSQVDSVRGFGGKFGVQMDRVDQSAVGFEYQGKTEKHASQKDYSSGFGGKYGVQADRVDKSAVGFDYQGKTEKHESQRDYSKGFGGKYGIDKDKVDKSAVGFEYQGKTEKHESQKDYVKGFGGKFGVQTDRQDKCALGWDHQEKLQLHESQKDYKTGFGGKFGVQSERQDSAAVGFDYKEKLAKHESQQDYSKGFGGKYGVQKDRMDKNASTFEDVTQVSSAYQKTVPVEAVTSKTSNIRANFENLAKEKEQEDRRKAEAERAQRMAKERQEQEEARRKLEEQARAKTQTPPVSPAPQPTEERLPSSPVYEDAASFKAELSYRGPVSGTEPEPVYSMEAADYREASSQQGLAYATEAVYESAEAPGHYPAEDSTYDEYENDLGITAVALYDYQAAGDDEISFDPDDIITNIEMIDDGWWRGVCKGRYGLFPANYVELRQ
UniProt Q96GD4: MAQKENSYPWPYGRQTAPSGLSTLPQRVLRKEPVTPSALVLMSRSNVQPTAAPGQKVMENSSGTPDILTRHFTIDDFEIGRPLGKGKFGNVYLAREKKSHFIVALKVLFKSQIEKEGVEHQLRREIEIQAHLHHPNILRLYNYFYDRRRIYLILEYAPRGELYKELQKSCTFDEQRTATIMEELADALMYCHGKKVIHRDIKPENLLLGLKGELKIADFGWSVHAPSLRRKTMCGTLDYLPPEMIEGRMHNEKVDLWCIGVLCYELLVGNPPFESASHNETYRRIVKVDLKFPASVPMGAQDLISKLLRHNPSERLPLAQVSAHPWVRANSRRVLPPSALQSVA

Assay [1] has as its target T1, low molecular weight protein tyrosine phosphatase (human (endogenous in GBM43)) (UniProt P24666).
T1 sequence: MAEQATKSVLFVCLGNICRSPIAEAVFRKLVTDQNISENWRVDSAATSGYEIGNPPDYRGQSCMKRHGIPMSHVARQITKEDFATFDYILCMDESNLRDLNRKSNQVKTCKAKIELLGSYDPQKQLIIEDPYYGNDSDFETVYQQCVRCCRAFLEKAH
Kind of assay: co-IP; IP of cortactin from GBM43 cell lysates, blotting for aurora B and LMW-PTP; IP of LMW-PTP from the same lysates, blotting for cortactin; endogenous proteins; n = 3 technical replicates.

Assay [2] concerns the target cortactin (human (endogenous in GBM43)) (UniProt Q14247). The assay is described as above.

These are yes or no findings as the source states them, for the method shown. Binding seen in cells or lysates may run through a third protein. Some results given as binding are weak or reduced against the parent protein; the word gives no strength.

With cortactin (from UniProt Q14247 1-550), the binding result in assay [1] is “binds”.

In the case of “aurora kinase B (from UniProt Q96GD4 1-344) (enzyme)”, the binding result in assay [2] is “binds”.

B1: low molecular weight protein tyrosine phosphatase (enzyme, UniProt P24666 1-158)
chain: T1 sequence
In the case of B1, in assay [2], the binding entry is “binds”.
